Measurements reported in patent publication US10626145B2 (CAREGEN CO., LTD., priority 2015, dated 2020).

Experiment: general procedure: peptide synthesis; chlorotrityl chloride resin (CTL resin, Nova biochem Cat No. 01-64-0021)
Conditions: whole synthesis

NH2-Leu-Lys-Thr-Arg-Asn-COOH (LKTRN; Peptide 1)
crude mass: 0.85 g | crude yield (scale of the general procedure 700 mg resin): 92%
